The target of test [1] is microtubules of osteoclasts (polymerized from endogenous tubulin) (mouse (endogenous in RAW264.7-derived osteoclasts)). Description: co-sedimentation; tubulin/microtubule fractionation of Arhgap10 KO #28 osteoclasts expressing doxycycline-induced myc-ARHGAP10 constructs; immunoblot (Fig. S2). In general terms: Immunoblotting shows a protein as a band on a membrane.
For test [2], the target named is microtubules of HEK293T cells (microtubule fraction) (human (endogenous in HEK293T)). Description: co-sedimentation; fractionation of HEK293T cells overexpressing myc-tagged constructs (24 h after transfection) into tubulin and microtubule fractions; immunoblot.
Test [3] addresses microtubules of osteoclasts (polymerized from endogenous tubulin) (mouse (endogenous in RAW264.7-derived osteoclasts)). Description: co-sedimentation; microtubule co-sedimentation from the high speed supernatant (100,000g) of osteoclast extracts in 1X BRB80, 1 mM DTT, 0.1% IGEPAL CA-630; tubulin polymerized with 2 mM GTP at 37 °C and paclitaxel; centrifuged at 100,000g over a 40% glycerol cushion; supernatant and pellet immunoblotted.

From PMC12509757 come the findings set out here.

Positions count from the first letter of the chain named. In names and notes the source's numbering stands. These are yes or no findings as the source states them, for the method shown. In cells and extracts the contact can be indirect. A result given as binding can be weak or reduced; the word gives no strength. For part of these data: Tags and fused reporters may be left off the sequences shown.

B1: myc-tagged full-length ARHGAP10, K37,41,44E, re-expressed in Arhgap10 KO osteoclasts (protein, UniProt A1A4S6 1-786)
chain: MGLQPLEFSDCYLDSPWFRERIRAHEAELERTNKFIEELIEDGENLIAATKSLSVAQRKFAHSLRDFKFEFIGDAVTDDERCIDASLREFSNFLKNLEEQREIMALSVTETLIKPLEKFRKEQLGAVKEEKKKFDKETEKNYSLIDKHLNLSAKKKDSHLQEADIQVEQNRQHFYELSLEYVCKLQEIQERKKFEFVEPMLSFFQGMFTFYHQGHELAKDFNHYKMELQINIQNTRNRFEGTRSEVEELMNKIRQNPKDHKRASQFTAEGYLYVQEKRPAPFGSSWVKHYCMYRKAAKKFNMIPFEHRSGGKLGDGEVFFLKECTKRHTDSIDRRFCFDIEAADRPGVSLTMQAFSEEERKQWLEALGGKEALSHSFNTAIIPRPEGNAQLDKMGFTIIRKCISAVETRGINDQGLYRVVGVSSKVQRLLSMLMDVKTCNEVDLENSADWEVKTITSALKQYLRSLPEPLMTYELHGDFIVPAKSGSPESRVNAIHFLVHKLPEKNKEMLDILVKHLTNVSNHSKQNLMTVANLGVVFGPTLMRPQEETVAALMDLKFQNIVVEILIENHEKIFRTPPDTTFPEPTCLSASPPNAPPRQSKRQGQRTKRPVAVYNLCLELEDGDNPYPSKEDTPTSSLDSLSSPSPVTTAVPGPPGPDKNHLLADGGSFGDWASTIPGQTRSSMVQWLNPQSPTTTSSNSAVTPLSPGSSPFPFSPPATVADKPPESIRSRKARAVYPCEAEHSSELSFEIGAIFEDVQTSREPGWLEGTLNGKRGLIPQNYVKLL
As to B1, in test [1], the binding entry is “binds weakly”.

B2: myc-tagged ARHGAP10 R418A (GAP-dead mutant), re-expressed in Arhgap10 KO osteoclasts (protein, UniProt A1A4S6 1-786)
chain: B1 chain with E37K, E41K, E44K, R418A
On to B2, for which, in test [1], the binding result was “binds”.

B3: myc-tagged full-length human ARHGAP10, WT (HEK293T) (protein, UniProt A1A4S6 1-786)
chain: B1 chain with E37K, E41K, E44K
In the case of B3, the binding entry in test [2] is reported as “binds”.

B4: myc-tagged BAR-PH (aa 1-388) of ARHGAP10, WT (domain or fragment, UniProt A1A4S6 1-388)
chain: MGLQPLEFSDCYLDSPWFRERIRAHEAELERTNKFIKELIKDGKNLIAATKSLSVAQRKFAHSLRDFKFEFIGDAVTDDERCIDASLREFSNFLKNLEEQREIMALSVTETLIKPLEKFRKEQLGAVKEEKKKFDKETEKNYSLIDKHLNLSAKKKDSHLQEADIQVEQNRQHFYELSLEYVCKLQEIQERKKFEFVEPMLSFFQGMFTFYHQGHELAKDFNHYKMELQINIQNTRNRFEGTRSEVEELMNKIRQNPKDHKRASQFTAEGYLYVQEKRPAPFGSSWVKHYCMYRKAAKKFNMIPFEHRSGGKLGDGEVFFLKECTKRHTDSIDRRFCFDIEAADRPGVSLTMQAFSEEERKQWLEALGGKEALSHSFNTAIIPRPEGN
B4: in test [2], the binding entry is “binds”.

B5: endogenous ARHGAP10 protein (osteoclasts) (protein, UniProt Q6Y5D8 1-786)
chain: MGLQPLEFSDCYLDSPWFRERIRAHEAELERTNKFIKELIKDGKNLISATKSLSAAQRKFAHSLRDFKFEFIGDAETDDERCIDASLREFSNFLKNLEEQREIMALSVTETLIKPLEKFRKEQLGAVKEEKKKFDKETEKNYSLIDKHLTLSARKKDSHLQEADLQVEQNRQHFYELSLEYVCKLQEIQERKKFEFVEPMLSFFQGMFTFYHQGHELSKDFNHYKMELQINIQNTRNRFEGTRSEVEELMNKIRQNPKDQKRASQFTAEGYLYVQEKRPAPFGSSWVKHYCMYRKTAKKFNMIPFEHRSGGKLGDGEAFFLKECTKRHMDSTDRRFCFDIEAADRPGVPLTVQAFSEEERKQWLEALGGKEALFHTFNRAIVPRPEGGAQLDKMGFTILRKCISAVETRGINDQGLYRVVGVSSKVQRLLSMLMDVKMCNELDLENSADWEVKTVTSALKQYLRSLPEPLMTYELHRDFIVPAKSGSPESRVNAIHFLVHKLPEKNKEMLDILVKHLTNVSSHSKQNLMTVANLGVVFGPTLMRPQEETVAAIMDLKFQNIVVEILIENHEKIFRTSPDTTFAEPTCLSASPPNAPPRQSKRQGQRTKRPVAVYNLCLELEEGDSPSPLKEDPPSSSQDSLSTPSPTTSAAHGPPGLDGNHLAADGGSCGDATATTPSQTRPSMVQWLNMQSPTTPSSNPAGTPPSPRMSPFPLSPAASIVDKLPECVINRKARAVYPCEAEHSSELSFEIGAIFEDVQTSREPGWLEGTLNGKRGLIPQNYVKLL
For B5, the binding entry in test [3] is listed as “binds”.

B6: GEFH1 (protein, UniProt Q60875 1-985)
chain: MSRIESLTRARIDRSKEQATKTREKEKMKEAKDARYTNGHLFTTISVSGMTMCYACNKSITAKEALICPTCNVTIHNRCKDTLANCTKVKQKQQKAALLRNNTALQSVSLRSKTTTRERPTSAIYPSDSFRQSLLGSRRGLSSLSLAKSVSTTNIAGHFNDESPLGLRQILSQSTDSLNMRNRTLSVESLIDEGVEVFYNELMSDFEMDEKDFEADSWSLAVDSSFLQQHKKEVMKKQDVIYELIQTELHHVRTLKIMTRLFRTGMLEELQMEPEVVQGLFPCVDELSDIHTRFLNQLLERRRQALCPGSTRNFVIHRLGDLLISQFSGSNAEQMRKTYSEFCSRHTKALKLYKELYARDKRFQQFIRKMTRSAVLKRHGVQECILLVTQRITKYPVLINRILQNSHGVEEEYQDLASALGLVKELLSNVDQDVHELEKEARLQEIYNRMDPRAQTPVPGKGPFGRDELLRRKLIHEGCLLWKTATGRFKDVLLLLMTDVLVFLQEKDQKYIFTSLDKPSVVSLQNLIVRDIANQAKGMFLISSGPPEMYEVHAASRDDRTTWIRVIQQSVRLCPSREDFPLIETEDKAYLRRIKTKLQQKNQALVELLQKNVELFAEMVHFQALKAGFVGMPPPALPRGLFRLESFESLRGERLLKDALREVEGLKDLLLGPCVDLPMTSREPALPLDSDSGSCPGVTANGEARTFNGSIELCRADSDSSQKDRNGNQLRSPQEEVLQPLINLYGLLHGLQAVVVQQERLMEALFPEGPERWEKLSRANSRDGEAGRAAVASVTPEKQATELALLQRQHTLLQEELRRCQRLGEERATEAGSLEARLRESEQARALLEREAEEIRRQLAALGQNEPLPAEAPWARRPLDPRRRSLPAGDALYLSFNPPQPSRGHDRLDLPVTVRSLHRPFDDREAQELGSPEDRLQDSSDPDTGSEEEVSSRLSPPHSPRDFTRMQDIPEETESRDGEPTASES
With B6, the binding result in test [3] is listed as “binds”.
